Here are results for 46 targets from the supplement of paper PMC6411743.

Sequences of proteins named here, by UniProt entry; tags and fusion partners are left off. A change or cut given only in a name is not applied to a line headed by its entry.
UniProt Q8NEF9: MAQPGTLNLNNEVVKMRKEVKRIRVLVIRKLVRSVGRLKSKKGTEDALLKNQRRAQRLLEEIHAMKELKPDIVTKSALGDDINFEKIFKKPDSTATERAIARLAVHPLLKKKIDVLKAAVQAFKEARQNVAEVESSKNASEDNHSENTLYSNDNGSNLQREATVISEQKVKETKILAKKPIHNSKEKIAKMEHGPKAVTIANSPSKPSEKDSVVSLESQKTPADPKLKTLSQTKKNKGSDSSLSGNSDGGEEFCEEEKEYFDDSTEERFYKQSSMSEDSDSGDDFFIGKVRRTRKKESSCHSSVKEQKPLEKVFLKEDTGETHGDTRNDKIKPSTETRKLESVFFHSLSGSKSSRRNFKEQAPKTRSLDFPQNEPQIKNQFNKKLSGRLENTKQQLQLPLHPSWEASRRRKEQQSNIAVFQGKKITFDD
UniProt Q8IWT0: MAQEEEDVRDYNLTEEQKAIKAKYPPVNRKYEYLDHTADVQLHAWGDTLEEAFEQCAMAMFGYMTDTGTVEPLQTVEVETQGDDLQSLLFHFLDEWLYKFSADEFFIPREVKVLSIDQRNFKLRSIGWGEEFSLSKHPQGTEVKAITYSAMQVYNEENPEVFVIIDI
UniProt Q8NDV3: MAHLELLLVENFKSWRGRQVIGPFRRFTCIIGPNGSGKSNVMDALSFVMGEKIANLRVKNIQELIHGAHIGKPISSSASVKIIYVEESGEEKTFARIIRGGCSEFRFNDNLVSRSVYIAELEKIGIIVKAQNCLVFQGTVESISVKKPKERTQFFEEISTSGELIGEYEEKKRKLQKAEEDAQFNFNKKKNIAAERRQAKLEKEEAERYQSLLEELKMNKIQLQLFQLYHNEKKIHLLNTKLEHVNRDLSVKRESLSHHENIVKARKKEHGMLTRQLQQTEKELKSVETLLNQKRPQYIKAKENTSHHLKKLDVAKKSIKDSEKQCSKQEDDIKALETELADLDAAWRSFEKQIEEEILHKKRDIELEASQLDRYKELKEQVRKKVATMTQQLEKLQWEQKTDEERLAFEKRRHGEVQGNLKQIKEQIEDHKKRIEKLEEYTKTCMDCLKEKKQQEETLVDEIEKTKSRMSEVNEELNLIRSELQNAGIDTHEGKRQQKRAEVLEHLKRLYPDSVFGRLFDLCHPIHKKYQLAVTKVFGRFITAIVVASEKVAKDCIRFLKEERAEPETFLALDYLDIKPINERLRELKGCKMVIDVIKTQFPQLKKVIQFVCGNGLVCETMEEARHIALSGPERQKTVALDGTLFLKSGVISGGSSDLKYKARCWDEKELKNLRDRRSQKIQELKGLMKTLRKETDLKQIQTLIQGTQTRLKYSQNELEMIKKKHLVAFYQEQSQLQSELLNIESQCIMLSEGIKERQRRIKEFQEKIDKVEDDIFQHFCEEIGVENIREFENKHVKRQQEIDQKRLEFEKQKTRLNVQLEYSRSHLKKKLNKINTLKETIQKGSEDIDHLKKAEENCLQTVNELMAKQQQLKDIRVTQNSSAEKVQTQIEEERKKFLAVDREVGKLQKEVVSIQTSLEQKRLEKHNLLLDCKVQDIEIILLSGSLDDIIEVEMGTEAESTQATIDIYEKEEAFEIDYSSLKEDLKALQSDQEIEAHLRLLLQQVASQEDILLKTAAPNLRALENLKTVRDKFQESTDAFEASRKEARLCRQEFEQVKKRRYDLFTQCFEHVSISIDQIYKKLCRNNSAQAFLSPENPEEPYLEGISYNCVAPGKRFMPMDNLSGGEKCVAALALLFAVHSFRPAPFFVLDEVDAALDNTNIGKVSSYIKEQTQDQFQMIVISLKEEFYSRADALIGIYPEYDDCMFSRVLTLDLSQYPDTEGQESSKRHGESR
UniProt Q8N9B5, whole entry: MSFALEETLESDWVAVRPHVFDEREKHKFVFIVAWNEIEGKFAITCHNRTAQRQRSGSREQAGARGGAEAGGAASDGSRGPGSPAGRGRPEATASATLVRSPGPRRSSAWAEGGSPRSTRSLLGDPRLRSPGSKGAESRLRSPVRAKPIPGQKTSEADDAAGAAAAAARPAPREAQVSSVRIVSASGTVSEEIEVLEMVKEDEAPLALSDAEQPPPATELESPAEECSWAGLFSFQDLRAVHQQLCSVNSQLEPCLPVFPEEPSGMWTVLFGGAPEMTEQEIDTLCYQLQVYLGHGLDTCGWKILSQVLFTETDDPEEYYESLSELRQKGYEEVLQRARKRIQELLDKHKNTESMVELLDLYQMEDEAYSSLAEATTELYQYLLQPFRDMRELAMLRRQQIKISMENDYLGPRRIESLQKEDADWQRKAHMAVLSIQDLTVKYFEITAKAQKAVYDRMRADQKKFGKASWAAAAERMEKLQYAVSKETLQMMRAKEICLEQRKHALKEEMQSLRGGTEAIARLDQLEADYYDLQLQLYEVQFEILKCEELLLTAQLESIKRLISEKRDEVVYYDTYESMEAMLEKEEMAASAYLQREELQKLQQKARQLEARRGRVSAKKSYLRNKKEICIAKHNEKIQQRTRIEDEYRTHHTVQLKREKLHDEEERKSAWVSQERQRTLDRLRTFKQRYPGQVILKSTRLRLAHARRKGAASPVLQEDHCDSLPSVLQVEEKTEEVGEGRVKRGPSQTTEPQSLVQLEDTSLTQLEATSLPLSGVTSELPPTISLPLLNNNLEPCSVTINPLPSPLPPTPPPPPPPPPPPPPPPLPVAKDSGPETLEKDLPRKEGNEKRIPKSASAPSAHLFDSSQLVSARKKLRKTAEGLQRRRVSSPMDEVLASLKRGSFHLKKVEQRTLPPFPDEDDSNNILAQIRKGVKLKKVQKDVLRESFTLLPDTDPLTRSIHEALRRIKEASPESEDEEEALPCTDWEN
UniProt Q8ND25: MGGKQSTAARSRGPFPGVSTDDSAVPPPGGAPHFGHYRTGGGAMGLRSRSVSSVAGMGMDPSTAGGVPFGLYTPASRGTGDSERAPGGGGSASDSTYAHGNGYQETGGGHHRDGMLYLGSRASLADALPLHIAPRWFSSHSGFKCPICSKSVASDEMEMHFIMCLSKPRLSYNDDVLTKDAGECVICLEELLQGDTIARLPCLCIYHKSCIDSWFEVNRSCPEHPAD
UniProt Q8N999, whole entry: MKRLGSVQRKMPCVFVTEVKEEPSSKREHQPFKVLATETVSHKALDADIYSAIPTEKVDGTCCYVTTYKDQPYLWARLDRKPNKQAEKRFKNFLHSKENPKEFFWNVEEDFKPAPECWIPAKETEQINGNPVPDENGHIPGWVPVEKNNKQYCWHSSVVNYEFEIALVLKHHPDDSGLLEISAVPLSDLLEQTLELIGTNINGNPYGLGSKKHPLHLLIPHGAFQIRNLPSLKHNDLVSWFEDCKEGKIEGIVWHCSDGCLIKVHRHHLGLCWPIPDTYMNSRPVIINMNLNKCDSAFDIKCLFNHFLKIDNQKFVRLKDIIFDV
UniProt Q8IX90, whole entry: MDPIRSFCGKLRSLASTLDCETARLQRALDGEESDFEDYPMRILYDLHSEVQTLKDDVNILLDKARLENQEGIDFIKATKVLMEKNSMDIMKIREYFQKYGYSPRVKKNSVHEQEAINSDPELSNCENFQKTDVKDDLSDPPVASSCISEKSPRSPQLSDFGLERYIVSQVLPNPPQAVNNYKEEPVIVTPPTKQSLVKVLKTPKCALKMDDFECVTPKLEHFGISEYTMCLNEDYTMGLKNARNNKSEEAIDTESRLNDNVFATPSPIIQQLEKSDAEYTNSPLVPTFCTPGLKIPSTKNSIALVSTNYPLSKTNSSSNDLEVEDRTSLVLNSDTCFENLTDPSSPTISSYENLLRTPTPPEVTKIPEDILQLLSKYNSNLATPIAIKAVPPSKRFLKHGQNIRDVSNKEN
UniProt Q8N302: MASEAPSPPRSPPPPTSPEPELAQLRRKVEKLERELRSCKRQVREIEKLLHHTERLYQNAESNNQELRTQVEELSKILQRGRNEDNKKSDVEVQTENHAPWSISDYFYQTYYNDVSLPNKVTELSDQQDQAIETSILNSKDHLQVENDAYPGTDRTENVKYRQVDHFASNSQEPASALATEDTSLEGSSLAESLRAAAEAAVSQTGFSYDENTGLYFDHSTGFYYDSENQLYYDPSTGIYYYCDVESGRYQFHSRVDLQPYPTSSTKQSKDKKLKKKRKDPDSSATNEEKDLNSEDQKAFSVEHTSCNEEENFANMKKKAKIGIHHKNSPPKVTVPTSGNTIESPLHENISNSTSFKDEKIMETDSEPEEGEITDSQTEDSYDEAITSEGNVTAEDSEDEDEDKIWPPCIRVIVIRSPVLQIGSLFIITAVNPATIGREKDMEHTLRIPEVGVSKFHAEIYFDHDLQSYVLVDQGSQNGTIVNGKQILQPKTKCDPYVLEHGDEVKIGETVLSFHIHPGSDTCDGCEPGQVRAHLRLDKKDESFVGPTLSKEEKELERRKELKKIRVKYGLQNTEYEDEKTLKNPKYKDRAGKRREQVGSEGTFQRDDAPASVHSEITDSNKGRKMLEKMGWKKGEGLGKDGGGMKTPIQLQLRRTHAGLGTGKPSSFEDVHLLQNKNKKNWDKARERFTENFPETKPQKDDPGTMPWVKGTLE
UniProt Q8IYM9: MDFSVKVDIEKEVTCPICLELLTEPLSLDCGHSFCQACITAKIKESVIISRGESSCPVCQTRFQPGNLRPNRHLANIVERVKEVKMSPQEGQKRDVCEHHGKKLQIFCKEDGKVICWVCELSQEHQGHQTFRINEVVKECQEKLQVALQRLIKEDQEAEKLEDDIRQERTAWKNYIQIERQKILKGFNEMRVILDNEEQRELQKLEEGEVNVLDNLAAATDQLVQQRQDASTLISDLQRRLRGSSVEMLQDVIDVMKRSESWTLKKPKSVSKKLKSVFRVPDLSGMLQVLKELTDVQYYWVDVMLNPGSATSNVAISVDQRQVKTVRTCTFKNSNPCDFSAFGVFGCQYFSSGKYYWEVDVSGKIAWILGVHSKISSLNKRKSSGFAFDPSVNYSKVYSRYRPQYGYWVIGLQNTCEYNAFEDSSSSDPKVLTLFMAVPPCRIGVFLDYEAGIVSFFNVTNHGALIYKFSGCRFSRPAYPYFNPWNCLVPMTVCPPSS
UniProt Q8N4Q0: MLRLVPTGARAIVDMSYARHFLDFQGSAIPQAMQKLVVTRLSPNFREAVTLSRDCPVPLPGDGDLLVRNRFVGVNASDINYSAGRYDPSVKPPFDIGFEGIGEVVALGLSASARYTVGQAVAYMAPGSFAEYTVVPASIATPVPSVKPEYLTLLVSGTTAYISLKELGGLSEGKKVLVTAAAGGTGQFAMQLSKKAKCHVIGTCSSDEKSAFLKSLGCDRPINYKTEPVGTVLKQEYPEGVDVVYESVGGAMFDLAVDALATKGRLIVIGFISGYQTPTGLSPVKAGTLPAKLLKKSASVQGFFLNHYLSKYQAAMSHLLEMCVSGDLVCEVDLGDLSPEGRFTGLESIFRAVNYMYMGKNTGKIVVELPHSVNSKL
UniProt Q8N128: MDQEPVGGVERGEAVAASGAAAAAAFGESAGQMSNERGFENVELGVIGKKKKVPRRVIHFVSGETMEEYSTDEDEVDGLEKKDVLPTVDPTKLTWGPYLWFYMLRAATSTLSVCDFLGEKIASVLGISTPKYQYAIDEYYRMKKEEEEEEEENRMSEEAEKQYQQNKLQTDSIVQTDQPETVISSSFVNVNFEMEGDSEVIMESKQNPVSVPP
UniProt Q8NCL4: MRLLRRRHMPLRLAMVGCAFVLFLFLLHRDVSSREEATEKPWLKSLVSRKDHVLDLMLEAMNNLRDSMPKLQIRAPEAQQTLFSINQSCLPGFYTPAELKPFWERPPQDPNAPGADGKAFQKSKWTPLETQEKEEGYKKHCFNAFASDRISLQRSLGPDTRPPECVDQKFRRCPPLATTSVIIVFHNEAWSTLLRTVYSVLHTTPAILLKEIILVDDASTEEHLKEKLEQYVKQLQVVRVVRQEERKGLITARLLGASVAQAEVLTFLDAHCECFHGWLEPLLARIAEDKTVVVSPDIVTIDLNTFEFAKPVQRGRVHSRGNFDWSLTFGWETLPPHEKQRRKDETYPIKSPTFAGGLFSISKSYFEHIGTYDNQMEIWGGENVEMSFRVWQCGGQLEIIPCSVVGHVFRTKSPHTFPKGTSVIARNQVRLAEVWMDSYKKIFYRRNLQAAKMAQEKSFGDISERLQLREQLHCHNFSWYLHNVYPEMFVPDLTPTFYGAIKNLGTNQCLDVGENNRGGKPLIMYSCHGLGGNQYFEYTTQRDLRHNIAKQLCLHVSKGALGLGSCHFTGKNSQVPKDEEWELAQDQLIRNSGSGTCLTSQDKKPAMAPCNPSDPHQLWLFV
UniProt Q8N488: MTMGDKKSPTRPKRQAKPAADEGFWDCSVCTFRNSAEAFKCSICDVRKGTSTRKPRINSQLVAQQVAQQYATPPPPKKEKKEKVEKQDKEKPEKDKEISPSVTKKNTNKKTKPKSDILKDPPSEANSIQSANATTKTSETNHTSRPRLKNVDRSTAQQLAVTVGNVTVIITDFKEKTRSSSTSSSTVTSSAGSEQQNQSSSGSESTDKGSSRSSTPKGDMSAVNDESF

Compound in this assay: Nc1ncnc2c1ncn2[C@@H]1O[C@H](COP(=O)(O)OP(=O)(O)OP(=O)(O)O)[C@@H](O)[C@H]1O [adenosine triphosphate]
The assay can be described thus: NP40-soluble protein abundance relative to vehicle (solubility fold change) (ratio); higher = more soluble protein in presence of ATP. An outline of the steps: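 Values are fold changes against the detergent-processed vehicle, based on vsn-normalised intensities. Jurkat crude lysate was treated at eight concentrations from 0.1 to 10 mM (10 min at room temperature, then 3 min at 37 °C), solubilised with 0.8% NP40 and benzonase, ultracentrifuged and analysed by TMT-labelled LC-MS/MS over three independent experiments.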

± gives the standard deviation of the averaged measurements. The list shows a part of the results, in another mix than the full data. Most entries show no effect beyond the scatter of the controls.

Regarding ENGASE (UniProt Q8NFI3), the NP40-soluble protein abundance is, setting by setting: (concentration: 0.1mM) 1.101 ± 0.0088; (concentration: 0.5mM) 1.1 ± 0.057.

As to UniProt Q8N0Z3, the NP40-soluble protein abundance is, setting by setting: (concentration: 0.1mM) 1.02 ± 0.039; (concentration: 0.5mM) 0.926 ± 0.033.

With LRRC8A (UniProt Q8IWT6), the NP40-soluble protein abundance reads like this: (concentration: 0.1mM) 1 ± 0.054; (concentration: 0.5mM) 0.999 ± 0.02.

Turning to SRFBP1 (UniProt Q8NEF9), the NP40-soluble protein abundance worked out at 0.971 ± 0.031 (concentration: 0.1mM) and 0.973 ± 0.044 (concentration: 0.5mM).

ZBTB8OS (UniProt Q8IWT0): the NP40-soluble protein abundance (concentration: 0.1mM) turned out to be 1.13 ± 0.19 and the NP40-soluble protein abundance (concentration: 0.5mM) is 1.16 ± 0.27.

Consider UniProt Q8NDV3 and related entries, for which the NP40-soluble protein abundance stood at 0.941 ± 0.081 (concentration: 0.1mM) and 1.01 ± 0.068 (concentration: 0.5mM).

Regarding GDPD1 (UniProt Q8N9F7), the NP40-soluble protein abundance reads like this: (concentration: 0.1mM) 1.05 ± 0.15; (concentration: 0.5mM) 1.02 ± 0.14.

With CLYBL (UniProt Q8N0X4), the NP40-soluble protein abundance reads like this: (concentration: 0.1mM) 1.01 ± 0.052; (concentration: 0.5mM) 1.05 ± 0.066.

For UniProt Q8N9B5 and related entries, the NP40-soluble protein abundance was 1.4 ± 0.38 (concentration: 0.1mM) and 0.985 ± 0.051 (concentration: 0.5mM).

Take UniProt Q8ND25 and related entries: the NP40-soluble protein abundance runs as follows: (concentration: 0.1mM) 0.967 ± 0.0068; (concentration: 0.5mM) 0.986 ± 0.088.

As for C12orf29 (UniProt Q8N999), the NP40-soluble protein abundance by setting is: (concentration: 0.1mM) 1.06 ± 0.037; (concentration: 0.5mM) 1.04 ± 0.014.

Take UniProt Q8IX90: the NP40-soluble protein abundance is 0.9731 ± 0.0067 (concentration: 0.1mM) and 0.9868 ± 0.0088 (concentration: 0.5mM).

As to INTS1 (UniProt Q8N201), the NP40-soluble protein abundance amounted to 0.9777 ± 0.0031 (concentration: 0.1mM) and 1.05 ± 0.019 (concentration: 0.5mM).

UBAC2 (UniProt Q8NBM4): the NP40-soluble protein abundance is, setting by setting: (concentration: 0.1mM) 0.988 ± 0.059; (concentration: 0.5mM) 0.98 ± 0.042.

On to UniProt Q8NCD3 and related entries, for which the NP40-soluble protein abundance runs as follows: (concentration: 0.1mM) 0.946 ± 0.06; (concentration: 0.5mM) 0.935 ± 0.14.

DHX40 (UniProt Q8IX18): the NP40-soluble protein abundance by setting is: (concentration: 0.1mM) 1.06 ± 0.013; (concentration: 0.5mM) 1.03 ± 0.024.

AGGF1 (UniProt Q8N302): the NP40-soluble protein abundance reads like this: (concentration: 0.1mM) 1 ± 0.045; (concentration: 0.5mM) 1.02 ± 0.14.

Consider FAM126B (UniProt Q8IXS8), for which the NP40-soluble protein abundance (concentration: 0.1mM) was 1.03 ± 0.026 and the NP40-soluble protein abundance (concentration: 0.5mM) is 0.957 ± 0.024.

Regarding SRBD1 (UniProt Q8N5C6), the NP40-soluble protein abundance reads like this: (concentration: 0.1mM) 1.08 ± 0.055; (concentration: 0.5mM) 1.08 ± 0.034.

PELP1 (UniProt Q8IZL8): the NP40-soluble protein abundance is, setting by setting: (concentration: 0.1mM) 0.993 ± 0.03; (concentration: 0.5mM) 0.896 ± 0.049.

As for TRIM22 (UniProt Q8IYM9), the NP40-soluble protein abundance (concentration: 0.1mM) amounted to 1.01 ± 0.043 and the NP40-soluble protein abundance (concentration: 0.5mM) was determined as 1 ± 0.037.

UniProt Q8TAA3-5|Q8TAA3: the NP40-soluble protein abundance (concentration: 0.1mM) is 0.965 ± 0.036 and the NP40-soluble protein abundance (concentration: 0.5mM) is 0.921 ± 0.018.

Take FTSJ3 (UniProt Q8IY81): the NP40-soluble protein abundance reads like this: (concentration: 0.1mM) 0.99 ± 0.041; (concentration: 0.5mM) 1.01 ± 0.048.

For ZADH2 (UniProt Q8N4Q0), the NP40-soluble protein abundance reads like this: (concentration: 0.1mM) 1.02 ± 0.047; (concentration: 0.5mM) 0.991 ± 0.027.

Regarding UniProt Q8NBN3 and related entries, the NP40-soluble protein abundance reads like this: (concentration: 0.1mM) 0.952 ± 0.015; (concentration: 0.5mM) 1 ± 0.033.

Take PRPF38A (UniProt Q8NAV1): the NP40-soluble protein abundance by setting is: (concentration: 0.1mM) 0.991 ± 0.067; (concentration: 0.5mM) 1.04 ± 0.11.

Turning to FBXO22 (UniProt Q8NEZ5), the NP40-soluble protein abundance is 1.13 ± 0.095 (concentration: 0.1mM) and 1.05 ± 0.069 (concentration: 0.5mM).

UniProt Q8NI60 and related entries: the NP40-soluble protein abundance runs as follows: (concentration: 0.1mM) 0.972 ± 0.024; (concentration: 0.5mM) 0.999 ± 0.048.

As to UniProt Q8NBJ4 and related entries, the NP40-soluble protein abundance was 0.873 ± 0.091 (concentration: 0.1mM) and 0.883 ± 0.061 (concentration: 0.5mM).

For the target UniProt Q8IVT5 and related entries, the NP40-soluble protein abundance is 0.928 ± 0.096 (concentration: 0.1mM) and 0.988 ± 0.065 (concentration: 0.5mM).

As for UniProt Q8N128 and related entries, the NP40-soluble protein abundance was 0.92 ± 0.043 (concentration: 0.1mM) and 0.946 ± 0.04 (concentration: 0.5mM).

Take EXOC8 (UniProt Q8IYI6): the NP40-soluble protein abundance by setting is: (concentration: 0.1mM) 1.02 ± 0.018; (concentration: 0.5mM) 1.03 ± 0.036.

In the case of GALNT6 (UniProt Q8NCL4), the NP40-soluble protein abundance is, setting by setting: (concentration: 0.1mM) 1.05 ± 0.12; (concentration: 0.5mM) 1.15 ± 0.18.

As to SLC15A4 (UniProt Q8N697), the NP40-soluble protein abundance amounted to 0.983 ± 0.055 (concentration: 0.1mM) and 0.953 ± 0.12 (concentration: 0.5mM).

Turning to ZNF687 (UniProt Q8N1G0), the NP40-soluble protein abundance came to 0.952 ± 0.13 (concentration: 0.1mM) and 1.03 ± 0.12 (concentration: 0.5mM).

With DIS3L2 (UniProt Q8IYB7), the NP40-soluble protein abundance reads like this: (concentration: 0.1mM) 1.04 ± 0.028; (concentration: 0.5mM) 1.04 ± 0.042.

Regarding RYBP (UniProt Q8N488), the NP40-soluble protein abundance (concentration: 0.1mM) turned out to be 0.996 ± 0.049 and the NP40-soluble protein abundance (concentration: 0.5mM) was 1.02 ± 0.029.

Regarding USP32 (UniProt Q8NFA0), the NP40-soluble protein abundance (concentration: 0.1mM) stood at 0.998 ± 0.056 and the NP40-soluble protein abundance (concentration: 0.5mM) came out at 0.994 ± 0.13.

Consider UniProt Q8IYU2 and related entries, for which the NP40-soluble protein abundance is, setting by setting: (concentration: 0.1mM) 1.02 ± 0.011; (concentration: 0.5mM) 1.02 ± 0.027.

Take GUF1 (UniProt Q8N442): the NP40-soluble protein abundance by setting is: (concentration: 0.1mM) 1.16 ± 0.1; (concentration: 0.5mM) 1.12 ± 0.049.

With LRRC47 (UniProt Q8N1G4), the NP40-soluble protein abundance reads like this: (concentration: 0.1mM) 1.04 ± 0.052; (concentration: 0.5mM) 1.03 ± 0.071.

Consider UniProt Q8N3U4 and related entries, for which the NP40-soluble protein abundance by setting is: (concentration: 0.1mM) 1.07 ± 0.075; (concentration: 0.5mM) 1.05 ± 0.047.

In the case of PM20D2 (UniProt Q8IYS1), the NP40-soluble protein abundance came out at 1.05 ± 0.027 (concentration: 0.1mM) and 1.02 ± 0.05 (concentration: 0.5mM).

UniProt Q8TAT6 and related entries: the NP40-soluble protein abundance by setting is: (concentration: 0.1mM) 1.03 ± 0.058; (concentration: 0.5mM) 1.04 ± 0.047.

Take UniProt Q8N1G2: the NP40-soluble protein abundance by setting is: (concentration: 0.1mM) 1.05 ± 0.067; (concentration: 0.5mM) 1.04 ± 0.045.

As for CLIP4 (UniProt Q8N3C7), the NP40-soluble protein abundance by setting is: (concentration: 0.1mM) 1.1 ± 0.043; (concentration: 0.5mM) 1.22 ± 0.14.
